# Reference: patent publication US20140031769A1, “THERAPEUTIC AGENT FORMULATIONS FOR IMPLANTED DEVICES” (ForSight Vision4, Inc., priority 2010, published 2014)
# Protein sequences, listed by entry. Tags and fused reporters are not part of them. Residues count along the entry.
# UniProt P02769, 25-607: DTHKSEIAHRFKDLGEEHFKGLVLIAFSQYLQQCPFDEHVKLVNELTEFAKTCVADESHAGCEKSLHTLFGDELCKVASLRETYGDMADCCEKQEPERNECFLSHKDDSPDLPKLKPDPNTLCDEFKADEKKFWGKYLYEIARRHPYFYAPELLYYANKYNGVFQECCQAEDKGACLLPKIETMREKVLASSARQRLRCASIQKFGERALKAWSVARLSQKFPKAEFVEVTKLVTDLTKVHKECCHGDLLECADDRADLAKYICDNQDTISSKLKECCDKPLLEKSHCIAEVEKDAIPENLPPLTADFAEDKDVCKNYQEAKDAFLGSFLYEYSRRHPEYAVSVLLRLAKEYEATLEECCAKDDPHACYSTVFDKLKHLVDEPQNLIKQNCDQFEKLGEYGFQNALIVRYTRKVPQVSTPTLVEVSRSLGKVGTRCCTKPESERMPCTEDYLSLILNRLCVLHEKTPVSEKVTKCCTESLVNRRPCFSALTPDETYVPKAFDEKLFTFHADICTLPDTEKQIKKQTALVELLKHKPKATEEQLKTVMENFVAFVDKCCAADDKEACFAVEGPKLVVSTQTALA
# At least one compound was matched to its structure with a doubt left.
# How the values were obtained:
# BSA = BSA (Bos taurus, UniProt P02769); experiment: Fluorescein absorbance calibration in PBS with BSA (ionic complex formation); format: physicochemical, bovine; settings: fluorescein 2 to 30 ug/mL, absorbance 492 nm
# [1] = Drug release study from devices with porous titanium cylinder into PBS receiver (Example 1); settings: Formulation II vs Formulation I
smiles,measurement,setting,value
O=C1OC2(c3ccc(O)cc3Oc3cc(O)ccc32)c2ccccc21 [fluorescein],"fluorescein concentration, % of nominal values",BSA; BSA 100 ug/mL,74%
same,"fluorescein concentration, % of nominal values",BSA; BSA 1000 ug/mL,69%
same,"release rate of fluorescein, formulation containing 200 mg/mL BSA compared to 20 mg/mL",[1],slower by a factor of two
